From PubChem BioAssay AID588497 (NMMLSC, 2011)
The whole screen tested about 360,000 compounds, of which about 780 (0.22%) were called active. Inconclusive results, whose numbers are uncertain, are shown with a selection of clear calls. Rule as the data show it: active = inhibition above about 35% (passing the limit was not always enough); inconclusive = no clear call, values can overlap the other calls.

Test system: Botulinum neurotoxin type F light chain protease (Clostridium botulinum)
Assay: BoNT/F light chain protease inhibitors, primary screen, biochemical, flow cytometry, MLPCN library (AID 588497); also: plate controls were buffer without enzyme for full effect and enzyme alone for no effect
Conditions: Multiplex microsphere protease cleavage assay, at 10 µM, hits give high values

Row | Compound | inhibition
1 | Cc1ccc(Cc2nnc(SCC(=O)Nc3ccccc3Cl)[nH]c2=O)cc1 | inconclusive: -1.2%
2 | O=C(N/N=C/c1ccccn1)c1cccnc1 | inconclusive: -52.3%
3 | Cc1ccc(S(=O)(=O)CCC(=O)Nc2cc(Cl)ccc2-n2cncn2)cc1 | inconclusive: -1%
4 | CCCn1nnnc1NCc1ccc(CC)cc1 | inconclusive: 29.3%
5 | N#Cc1cc(N)ccc1-n1cccc1 | inconclusive: -9.6%
6 | O=C(N/N=C/c1ccccn1)c1[nH]c2ccc([N+](=O)[O-])cc2c1-c1ccccc1 | inactive: -3.8%
7 | COc1cc(OC)c(C(=O)/C=C/c2ccc(OCc3ccccc3)c(OC)c2)c(OC)c1 | inconclusive: -20.7%
8 | Cc1cc(Br)ccc1S(=O)(=O)NCc1ccccc1 | inconclusive: -16.5%
9 | COc1ccc(C(=O)Nc2c(Cl)cc(Cl)cc2C(=O)NCCN2CCOCC2)cc1 | inactive: -1.9%
10 | CC1CCN(C(=O)C(C)NCc2ccc(F)cc2)CC1 (stereo not drawn) | inconclusive: -24.2%
11 | CCOC(=O)c1sc(=S)n(Cc2ccccc2)c1C | inconclusive: -148%
12 | CCNC(=O)C1(C)CCCN(C(=O)c2nc(C)oc2C)C1 (stereo not drawn) | inactive: -1.5%
13 | Cc1ccc(NC(=O)C2CC(=O)OC23CCOC(C)(C)C3)cc1 (stereo not drawn) | inconclusive: -38.3%
14 | O=C(NC(=S)Nc1ccccc1Cl)c1cncc(Br)c1 | inconclusive: 4.7%
15 | CCOC(=O)c1c(C)nc(C)c(C(=O)OCC)c1-c1ccco1 | inconclusive: -42.9%
16 | Cc1cc(NS(=O)(=O)c2ccc3c(c2)OCCO3)no1 | inconclusive: 69.7%
17 | CCOc1ncccc1C(=O)OCC(=O)Nc1ccc2c(c1)OCCO2 | inactive: -6.6%
18 | CC(C)(C)NC(=O)N1CCCN(c2ccc(C(F)(F)F)cn2)CC1 | inconclusive: -16.5%
19 | CCN(C[C@H]1N[C@@](CC)(C(=O)OC)[C@H]2C(=O)N(Cc3ccccc3)C(=O)[C@@H]12)C(=O)c1ccccc1 | inactive: -3.3%
20 | CCOC(=O)N(CC)c1ccc(C(O)(C(=O)OC)C(F)(F)F)cc1 (stereo not drawn) | inconclusive: 17%
21 | COc1ccccc1CCN1CCCC(CN(C)C(=O)CCC(=O)N(C)C)C1 (stereo not drawn) | inconclusive: -3.9%
22 | CCC1(CC)Cc2ccccc2C(=O)N1 | inconclusive: 14%
23 | CN1CCN(C(CNS(=O)(=O)c2ccc(Br)cc2)c2ccc3c(c2)OCO3)CC1 (stereo not drawn) | inactive: 2.4%
24 | COCCNC(=O)CCCCCN1C(=O)CCC1=O | inconclusive: 14.7%

Row | Compound | inhibition
25 | OCCC1CN(C/C=C/c2ccco2)CCN1Cc1ccccc1 (stereo not drawn) | inconclusive: -49.1%
26 | Cc1ccc(C(=O)OCC(=O)NCc2ccco2)cc1 | inconclusive: -27.6%
27 | Cc1ccc(/C=C/C(=O)OCC(=O)NCCc2ccc(S(N)(=O)=O)cc2)o1 | inactive: 6.4%
28 | CC(C)CCNC(=O)C1CCC(=O)N1CCc1ccccc1 (stereo not drawn) | inconclusive: -16.1%
29 | CCCOc1ccccc1Nc1nnc(C)c(=O)[nH]1 | inactive: -6.7%
30 | N/C(=N\OC(=O)c1cccs1)c1ccc(Cl)cc1 | inconclusive: -49%
31 | Cc1nc(-c2nnc(SCC(=O)Nc3cc(Cl)cc(Cl)c3)n2C)cs1 | inconclusive: 20.1%
32 | COc1ccccc1/C=C/C=N/NC(=O)CN1CCN(Cc2ccccc2)CC1 | inconclusive: 12.7%
33 | COc1cccc(-c2nc(CS(=O)CC(=O)NC3CCCCC3)c(C)o2)c1 (stereo not drawn) | inactive: -5.4%
34 | Cc1ccc(NC(=O)CN2CCOCC2)c(Br)c1 | inconclusive: -24.8%
35 | CCOP(=O)(OCC)c1nc(Cc2ccccc2)oc1NCc1ccccc1 | inconclusive: 88.4%
36 | CCc1ccc(N2C(=O)CC(N3CCN(c4ccccn4)CC3)C2=O)cc1 (stereo not drawn) | inconclusive: 47.4%
37 | CN(C)S(=O)(=O)c1cccc(NC(=O)CCNC(=O)Nc2ccccc2)c1 | inactive: -1.7%
38 | CC(=O)c1cc(C)ccc1OC(=O)c1ccncc1 | inconclusive: 10.4%
39 | CC(=NCCCn1ccnc1)c1c(O)n(-c2ccccc2)c(=O)[nH]c1=O | inconclusive: -194%
40 | COc1ccccc1C(=O)NC(=O)COC(=O)c1ccc(C)o1 | inconclusive: 0.3%
41 | CCC(C)N(C(=O)CSc1nc2ccc(OC)cc2[nH]1)C1CCS(=O)(=O)C1 (stereo not drawn) | inactive: -25.5%
42 | COC(=O)c1ccc(C(=O)OC)c(=O)[nH]1 | inactive: -13.9%
43 | Clc1cccc(/C=N/N2CCN(Cc3ccccc3)CC2)c1 | inconclusive: -41.5%
44 | O=C(O)CN1C(=O)/C(=C\c2cccc(OCc3ccccc3F)c2)SC1=S | inconclusive: -13.8%
45 | COc1ccc(S(=O)(=O)n2nc(-n3c(C)ccc3C)c3c(F)cccc32)cc1OC | inconclusive: -69.2%
46 | Cc1ccc(C(=O)Nc2ncc([N+](=O)[O-])s2)cc1 | inconclusive: -52%
47 | Cc1cc(=O)c2c(C)ccc(C)c2[nH]1 | inconclusive: 1.2%
48 | CCOc1ccccc1NCc1nnc(-c2ccccc2)o1 | inconclusive: -40.3%

Reprinted at random: 2 entries already listed
Row | Compound | inhibition
47 | Cc1cc(=O)c2c(C)ccc(C)c2[nH]1 | inconclusive: 1.2%
34 | Cc1ccc(NC(=O)CN2CCOCC2)c(Br)c1 | inconclusive: -24.8%

Next part.

Row | Compound | inhibition
49 | OC(COCc1ccccc1F)CN1CCCCC1 (stereo not drawn) | inconclusive: -38.3%
50 | COc1ccccc1NC(=O)CCCCCN1C(=O)c2cccc([N+](=O)[O-])c2C1=O | inconclusive: 26.7%
51 | COc1cc(/C=C(\C#N)c2nc3ccc(C)cc3[nH]2)c([N+](=O)[O-])cc1OC | inactive: 2%
52 | CCN(CC(=O)Nc1c(F)cccc1F)C(=O)CCCN1C(=O)c2cccc3cccc(c23)C1=O | inactive: 5.5%
53 | CN(C)CCNC(=O)c1c(NC(=O)c2ccccc2)sc2c1CCCC2 | inconclusive: -62.1%
54 | COC(=O)c1nn(-c2ccc(Cl)cc2)c(=O)cc1Sc1ccccn1 | inconclusive: -1.2%
55 | O=c1c(-c2ccc(Br)cc2)coc2c(CN3CCCCC3)c(O)ccc12 | inactive: -27.1%
56 | O=C(NCC(c1ccco1)N1CCc2ccccc2C1)C(=O)Nc1ccc(F)cc1F (stereo not drawn) | inactive: -9.9%
57 | S=C(Nc1ccc(Cl)cc1)NC1CCCCC1 | inconclusive: -50.4%
58 | Cc1cc2nc(N=C(N)N)nc(C)c2cc1C | inactive: 3.8%
59 | COc1ccc(S(=O)(=O)N(C)C)cc1NC(=O)CCNC(=O)c1ccco1 | active: 41.1%
60 | COc1ccc(OC)c(C(=O)Nc2c(O)ccc3ccccc23)c1 | inconclusive: 17.7%
61 | COc1nc(N2CCCCCC2)nc(N2CCCCCC2)n1 | inconclusive: 3.4%
62 | Cc1ccc(-c2nc(C#N)c(NCCN3CCCCC3)o2)cc1 | inactive: -10.9%
63 | CN1CCN(CC(=O)Nc2ccc(Oc3ccccc3)cc2)CC1 | inconclusive: -7%
64 | N/C(=N\OC(=O)c1ccc(OCC(F)(F)F)nc1)c1ccc(Cl)cc1 | inconclusive: -8.3%
65 | Cc1ccc(NC(=O)CCC(=O)c2ccccc2)cc1 | inconclusive: -31.2%
66 | Cc1oc(C(C)(C)C)cc1C(=O)NCc1ccc2c(c1)OCO2 | inconclusive: -19.6%
67 | Oc1ccc(-c2nc3ccccc3nc2-c2ccccc2)cc1 | inconclusive: -7.9%
68 | CC(C)CCNC(=O)CCCC1=NS(=O)(=O)c2ccccc2N1 | inactive: 7%
69 | CCCCNC(=O)c1cc2c(=O)n3cccc(C)c3nc2n(Cc2ccncc2)c1=N | inactive: -4.5%
70 | O=C1NC(c2ccc(Br)cc2)Oc2ccccc21 (stereo not drawn) | inconclusive: 33.5%
71 | O=C1CC(c2ccncc2)c2cc3c(cc2N1)OCO3 (stereo not drawn) | inconclusive: 20%
72 | Cc1ccc(NC(=O)CN(C)C(=O)c2cc3c(s2)CCCCC3)cc1 | inactive: 4.9%

Row | Compound | inhibition
73 | CCCN(CCC)C(=O)CSc1nc2ccsc2c(=O)n1NC(=O)c1ccccc1 | inconclusive: 0.9%
74 | COC(=O)CNC(=O)c1cccc(Cl)c1 | inactive: -2.8%
75 | O=C1c2ccccc2C(=O)c2[nH]cnc21 | inconclusive: -13.4%
76 | CC(CN1CCC(n2nccc2NC(=O)C2CCCC2)CC1)c1ccccc1 (stereo not drawn) | inconclusive: 14.1%
77 | COC(=O)C1=CNC=C(C(=O)OC)C1c1ccc(C(=O)OC)cc1 | inactive: 6.1%
78 | COc1ccc(CC(=O)Nc2c3c(nn2-c2cccc(Cl)c2)CS(=O)(=O)C3)cc1 | inactive: -6.5%
79 | Cn1nc(C(=O)OCc2ccccc2F)c2ccccc2c1=O | inactive: -0.6%
80 | CC1CC(Nc2ccccc2)c2ccccc2N1C(=O)c1ccccc1F (stereo not drawn) | inconclusive: 6.9%
81 | NC(=S)Nc1ccc(F)c(F)c1F | inconclusive: -16%
82 | CC1(C(=O)Nc2ccc(F)c(Cl)c2)Cc2c(-c3ccc(C(N)=O)cc3)ccnc2O1 (stereo not drawn) | inactive: 1.1%
83 | Cc1ccc(NC(=O)c2cc(NC(=O)C3CC=CCC3C(=O)O)ccc2N2CCOCC2)cc1 (stereo not drawn) | inactive: -4.3%
84 | CN(C)/C(=N\S(=O)(=O)c1ccccc1)c1ccc(Cl)cc1 | inconclusive: -35.3%
85 | CCNc1cc(Nc2c(C)n(C)n(-c3ccccc3)c2=O)c([N+](=O)[O-])c2nonc12 | inconclusive: -175%
86 | O=C(N[C@@H]1C[C@H]2CC[C@@H]1C2)c1ccco1 | inconclusive: 24.6%
87 | Cc1cc(NC(=O)C(C)C)ncc1NC(=O)Cc1ccccc1 | inconclusive: 27.6%
88 | O=C(NCC1(c2ccccc2)CCOCC1)c1ccc(Br)o1 | inconclusive: 10.5%
89 | Cc1ccccc1NC(=O)C(C)OC(=O)CCC(=O)N(CC(C)C)c1c(N)n(CC(C)C)c(=O)[nH]c1=O (stereo not drawn) | inconclusive: -4.6%
90 | COC(=O)c1ccc(N2NC(=O)/C(=C/c3ccc(OC)c(OC)c3)C2=O)cc1 | inconclusive: -20.9%
91 | CN(C)c1ccc(-n2cc3c(=O)n(C)c(=O)n(C)c3c2)cc1 | inconclusive: -39.7%
92 | COC(=O)c1ccc(C(c2c(C)n(C)n(-c3ccccc3)c2=O)c2c(C)n(C)n(-c3ccccc3)c2=O)cc1 | inconclusive: 10%
93 | COc1ccc(NS(=O)(=O)c2cc(NC(=O)c3ccccc3)ccc2N2CCOCC2)cc1 | inconclusive: -0.6%

Sorted by formula weight (falling): some entries from above
Row | Compound | inhibition
85 | CCNc1cc(Nc2c(C)n(C)n(-c3ccccc3)c2=O)c([N+](=O)[O-])c2nonc12 | inconclusive: -175%
76 | CC(CN1CCC(n2nccc2NC(=O)C2CCCC2)CC1)c1ccccc1 (stereo not drawn) | inconclusive: 14.1%
80 | CC1CC(Nc2ccccc2)c2ccccc2N1C(=O)c1ccccc1F (stereo not drawn) | inconclusive: 6.9%
84 | CN(C)/C(=N\S(=O)(=O)c1ccccc1)c1ccc(Cl)cc1 | inconclusive: -35.3%
87 | Cc1cc(NC(=O)C(C)C)ncc1NC(=O)Cc1ccccc1 | inconclusive: 27.6%
74 | COC(=O)CNC(=O)c1cccc(Cl)c1 | inactive: -2.8%
